Test: molar heat capacity at constant pressure
Details: 101.33 kPa, Small sample (50 mg) DSC

CCCCCCCCCO [nonan-1-ol]
Details	molar heat capacity at constant pressure [J/K/mol]
217.02 K, Crystal	195.3
218.14 K, Crystal	196.38
219.82 K, Crystal	196.77
220.01 K, Crystal	196.98
221.07 K, Crystal	197.26
222.06 K, Crystal	199.54
223.11 K, Crystal	200.68
224.89 K, Crystal	201.22
225.38 K, Crystal	201.57
226.05 K, Crystal	203.08
227.04 K, Crystal	204.3
228.26 K, Crystal	206.7
229.23 K, Crystal	207.14
230.03 K, Crystal	207.39
231.26 K, Crystal	211.42
233.02 K, Crystal	212.23
233.27 K, Crystal	212.33
234.62 K, Crystal	212.65
235.18 K, Crystal	215.05
236.09 K, Crystal	217.22
237.12 K, Crystal	218.22
238.16 K, Crystal	219.07
239.02 K, Crystal	219.63
240.11 K, Crystal	221.25
241.15 K, Crystal	223.4
242.06 K, Crystal	224.92
243.08 K, Crystal	227.73
244.17 K, Crystal	228.57
245.08 K, Crystal	231.13
246.16 K, Crystal	232.99
281.12 K, Liquid	323.47
283.23 K, Liquid	325.33
285.32 K, Liquid	327.22
287.14 K, Liquid	329.03
289.01 K, Liquid	330.95
291.14 K, Liquid	333.2
293.02 K, Liquid	335.22
295.38 K, Liquid	338.09
297.54 K, Liquid	340.92
299.13 K, Liquid	342.32
301.41 K, Liquid	344.69
303.29 K, Liquid	346.6
305.67 K, Liquid	349.55
307.02 K, Liquid	350.87
309.17 K, Liquid	353.11
311.06 K, Liquid	355.46
313.19 K, Liquid	358.03
315.22 K, Liquid	360.47
317.08 K, Liquid	362.75
319.19 K, Liquid	364.89
321.24 K, Liquid	367.74
323.77 K, Liquid	370.56
326.13 K, Liquid	373.42
330.1 K, Liquid	378.15

Reference: the NIST ThermoML archive (doi:10.1016/j.fluid.2005.07.009)
